The supplement of paper PMC10331698
± gives the standard deviation of the averaged measurements. Most values lie at the level of the controls, where differences are scatter.

How the values were obtained:
Assay in all cases: level (log10 ratio to DMSO vehicle control); higher = higher biomarker level / cell amount than vehicle control
[1] = compound: C=C(C)C(=O)OCC(F)(F)C(F)(F)C(F)(F)F [2,2,3,3,4,4,4-Heptafluorobutyl methacrylate]; details: 2200 nM; in DMSO
Protocol: (§1)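 BioMAP Diversity Plus panel of 12 human primary cell co-culture systems (3C, 4H, LPS, SAg, BT, BF4T, BE3C, CASM3C, HDF3CGF, KF3CT, MyoF, Mphg). Compounds were added 1 h before stimulation and left for 24 h (MyoF 48 h; BT 72 h for soluble read-outs or 6 d for IgG). Biomarkers were read by ELISA, cytotoxicity by SRB, PBMC viability and proliferation by Alamar Blue. Each well value was divided by the mean of 8 DMSO control wells on the same plate and log10 transformed; duplicate blinded samples were tested at 4 concentrations.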

[2] = compound: C=CC(=O)OCC(F)(F)C(F)(F)C(F)(F)C(F)(F)COC(=O)C=C [1H,1H,6H,6H-Perfluorohexane-1,6-diol diacrylate]; details: 2200 nM; in DMSO
Protocol: as §1

[3] = compound: FC(F)(F)C(F)(F)C(F)(F)C(F)(F)C(F)(F)C(F)(F)C(F)(F)CCI [1-Iodo-1H,1H,2H,2H-perfluorononane]; details: in DMSO
Protocol: as §1

[4] = compound: FC(F)(F)C(F)(F)C(F)(F)C(F)(F)C(F)(F)C(F)(F)C(F)(F)I [1-Iodopentadecafluoroheptane]; details: in DMSO
Protocol: as §1

[5] = compound: FC(F)C(F)(F)COCC1CO1 [((2,2,3,3-Tetrafluoropropoxy)methyl)oxirane]; details: 2200 nM; in DMSO
Protocol: as §1

Perfluorooctanamide = compound: NC(=O)C(F)(F)C(F)(F)C(F)(F)C(F)(F)C(F)(F)C(F)(F)C(F)(F)F [Perfluorooctanamide]; details: 2200 nM; in DMSO
Protocol: as §1

Perfluoroundecanoic acid = compound: O=C(O)C(F)(F)C(F)(F)C(F)(F)C(F)(F)C(F)(F)C(F)(F)C(F)(F)C(F)(F)C(F)(F)C(F)(F)F [Perfluoroundecanoic acid]; details: in DMSO
Protocol: as §1

[6] = compound: O=C(O)C(F)(F)C(F)(F)C(F)(F)C(F)(F)C(F)(F)C(F)(F)C(F)(F)C(F)F [9-H-Perfluorononanoic acid]; details: 2200 nM; in DMSO
Protocol: as §1

Perfluorobutanoic acid = compound: O=C(O)C(F)(F)C(F)(F)C(F)(F)F [Perfluorobutanoic acid]; details: 2200 nM; in DMSO
Protocol: as §1

Perfluoropropanoic acid = compound: O=C(O)C(F)(F)C(F)(F)F [Perfluoropropanoic acid]; details: 2200 nM; in DMSO
Protocol: as §1

[7] = compound: O=C(O)C(F)(F)C(F)(F)OC(F)(F)F [Perfluoro-3-methoxypropanoic acid]; details: 2200 nM; in DMSO
Protocol: as §1

[8] = compound: O=C(O)C(F)(F)OC(F)(F)C(F)(F)OC(F)(F)C(=O)O [Perfluoro-3,6-dioxaoctane-1,8-dioic acid]; details: 2200 nM; in DMSO
Protocol: as §1

[9] = compound: O=C(O)C(F)(F)OC(F)(F)C(F)(F)OC(F)(F)C(F)(F)C(F)(F)C(F)(F)F [Perfluoro-3,6-dioxadecanoic acid]; details: 2200 nM; in DMSO
Protocol: as §1

[10] = compound: O=C(O)C=CC(F)(C(F)(F)F)C(F)(F)F [3-(Perfluoroisopropyl)-2-propenoic acid]; details: in DMSO
Protocol: as §1

[11] = compound: O=P(O)(O)CCC(F)(F)C(F)(F)C(F)(F)C(F)(F)C(F)(F)C(F)(F)C(F)(F)C(F)(F)F [((Perfluorooctyl)ethyl)phosphonic acid]; details: 2200 nM; in DMSO
Protocol: as §1

[12] = compound: O=S(=O)(Cl)C(F)(F)C(F)(F)C(F)(F)C(F)(F)C(F)(F)C(F)(F)C(F)(F)C(F)(F)F [Perfluoro-1-octanesulfonyl chloride]; details: 2200 nM; in DMSO
Protocol: as §1

[13] = compound: OCC(F)(F)C(F)(F)C(F)(F)C(F)(F)C(F)(F)C(F)(F)C(F)(F)C(F)(F)C(F)(F)C(F)(F)C(F)(F)F [11:1 Fluorotelomer alcohol]; details: in DMSO
Protocol: as §1

[14] = compound: OCCC(F)(F)C(F)(F)C(F)(F)C(F)(F)C(F)(F)C(F)(F)C(F)(F)C(F)(F)F [8:2 Fluorotelomer alcohol]; details: 2200 nM; in DMSO
Protocol: as §1

Test System | level (log10) [1] | level (log10) [2] | level (log10) ([3]; 740 nM) | level (log10) ([3]; 2200 nM) | level (log10) ([3]; 6700 nM) | level (log10) ([3]; 20000 nM) | level (log10) ([4]; 740 nM) | level (log10) ([4]; 2200 nM) | level (log10) ([4]; 6700 nM) | level (log10) ([4]; 20000 nM) | level (log10) [5] | level (log10) (Perfluorooctanamide) | level (log10) (Perfluoroundecanoic acid; 740 nM) | level (log10) (Perfluoroundecanoic acid; 2200 nM) | level (log10) [6] | level (log10) (Perfluorobutanoic acid) | level (log10) (Perfluoropropanoic acid) | level (log10) [7] | level (log10) [8] | level (log10) [9] | level (log10) ([10]; 2200 nM) | level (log10) ([10]; 6700 nM) | level (log10) ([10]; 20000 nM) | level (log10) ([10]; 60000 nM) | level (log10) [11] | level (log10) [12] | level (log10) ([13]; 370 nM) | level (log10) ([13]; 1100 nM) | level (log10) ([13]; 3300 nM) | level (log10) ([13]; 10000 nM) | level (log10) [14]
MyoF:SRB | -0.027 ± 0.041 | 0.011 ± 0.0057 | 0.001 ± 0.0042 | -0.0005 ± 0.0064 | 0.016 ± 0.0014 | 0.0325 ± 0.0021 | -0.004 ± 0.0057 | 0.0015 ± 0.0035 | -0.0135 ± 0.00071 | -0.131 ± 0.012 | -0.0025 ± 0.005 | 0.001 ± 0.011 | 0.0235 ± 0.00071 | 0.0245 ± 0.015 | 0.0095 ± 0.005 | 0.0065 ± 0.00071 | 0.0025 ± 0.0078 | 0.003 ± 0.011 | -0.007 ± 0.0057 | -0.0025 ± 0.0035 | 0.005 ± 0.02 | -0.005 ± 0.0014 | -0.0085 ± 0.0035 | 0 ± 0.018 | 0.006 ± 0.021 | -0.0005 ± 0.019 | -0.003 ± 0.011 | 0 ± 0.0042 | -0.0015 ± 0.012 | 0.0015 ± 0.016 | 0.0065 ± 0.0092
MyoF:CD106/VCAM-1 | -0.0035 ± 0.037 | -0.052 ± 0.038 | -0.018 ± 0.023 | -0.012 ± 0.0099 | -0.007 ± 0.023 | -0.003 ± 0.0014 | -0.0115 ± 0.00071 | -0.017 ± 0.0071 | -0.091 ± 0.0057 | -0.448 ± 0.019 | -0.027 ± 0.0014 | -0.011 ± 0.0085 | 0.007 ± 0.041 | 0.008 | -0.022 ± 0.014 | -0.025 ± 0.0042 | 0.011 ± 0.0057 | -0.008 ± 0.045 | -0.015 ± 0.021 | -0.015 | 0.0095 ± 0.015 | 0.006 ± 0.011 | 0.0035 ± 0.00071 | -0.0035 ± 0.0035 | 0.0125 ± 0.015 | 0.002 ± 0.021 | -0.0115 ± 0.00071 | -0.0055 ± 0.037 | -0.0075 ± 0.022 | -0.0025 ± 0.00071 | -0.001 ± 0.016
4H:SRB | 0.0015 ± 0.019 | 0.009 ± 0.0042 | 0.018 ± 0.024 | 0.0115 ± 0.0078 | 0.0165 ± 0.0092 | 0.024 ± 0.024 | 0.0065 ± 0.011 | 0.005 ± 0.0057 | 0.0015 ± 0.0092 | 0.0125 ± 0.005 | 0.0015 ± 0.015 | 0.0005 ± 0.013 | 0.0035 ± 0.0078 | 0 ± 0.0042 | 0.016 ± 0.0071 | -0.019 ± 0.013 | 0.004 ± 0.0057 | -0.0035 ± 0.013 | -0.004 ± 0.011 | -0.0175 ± 0.011 | -0.001 ± 0.0028 | 0.001 ± 0.018 | -0.0045 ± 0.029 | 0.004 ± 0.021 | -0.0235 ± 0.0064 | 0.0005 ± 0.00071 | 0.0045 ± 0.013 | -0.0105 ± 0.0092 | -0.0195 ± 0.0035 | -0.0005 ± 0.025 | -0.018 ± 0.0014
LPS:CD142/Tissue Factor | 0.001 ± 0.011 | 0.0155 ± 0.025 | 0.0395 ± 0.07 | 0.052 ± 0.044 | 0.046 ± 0.073 | -0.0215 ± 0.09 | -0.035 ± 0.15 | -0.031 ± 0.088 | 0.0105 ± 0.07 | 0.036 ± 0.02 | 0.029 ± 0.033 | -0.0115 ± 0.052 | 0.0795 ± 0.1 | 0.001 ± 0.0085 | -0.0405 ± 0.015 | -0.001 ± 0.0099 | 0.0075 ± 0.0035 | 0.0155 ± 0.04 | 0.021 ± 0.038 | 0.008 ± 0.0099 | 0.0085 ± 0.029 | 0.0105 ± 0.0078 | -0.021 ± 0.025 | 0.006 ± 0.021 | 0.0025 ± 0.0092 | -0.053 ± 0.068 | 0.047 ± 0.0014 | 0.056 ± 0.0028 | 0.084 ± 0.03 | 0.0995 ± 0.00071 | -0.033 ± 0.095
4H:CD106/VCAM-1 | 0.0165 ± 0.073 | -0.0105 ± 0.011 | 0.015 ± 0.045 | 0.011 | -0.003 ± 0.027 | -0.0585 ± 0.083 | -0.014 ± 0.016 | -0.009 ± 0.0028 | -0.018 ± 0.0042 | -0.0005 ± 0.0035 | -0.007 ± 0.0099 | -0.0035 ± 0.0021 | -0.004 ± 0.0042 | -0.02 ± 0.021 | 0.0395 ± 0.081 | -0.0185 ± 0.013 | -0.0035 ± 0.018 | 0.001 ± 0.014 | 0.013 ± 0.021 | 0.007 ± 0.035 | 0.0205 ± 0.015 | 0.0275 ± 0.011 | -0.0175 ± 0.019 | 0.016 ± 0.0014 | 0.0035 ± 0.018 | 0.003 ± 0.031 | 0.02 ± 0.021 | 0.0285 ± 0.022 | 0.0115 ± 0.057 | 0.024 ± 0.038 | 0.008 ± 0.018
BE3C:HLA-DR | 0.0025 ± 0.0035 | -0.002 ± 0.017 | 0.0005 ± 0.015 | 0.0135 ± 0.00071 | -0.0065 ± 0.0035 | -0.0225 ± 0.0092 | -0.0045 ± 0.021 | -0.0055 ± 0.0035 | 0.0035 ± 0.0021 | 0.0015 ± 0.0078 | 0.0145 ± 0.00071 | 0.01 ± 0.0042 | -0.0045 ± 0.00071 | -0.0075 ± 0.0021 | -0.04 ± 0.02 | -0.004 ± 0.021 | -0.0115 ± 0.018 | 0.0065 ± 0.028 | 0.0015 ± 0.029 | -0.015 ± 0.025 | 0.0155 ± 0.032 | -0.0075 ± 0.013 | 0.0035 ± 0.015 | 0.0095 ± 0.018 | 0.0145 ± 0.018 | 0.021 ± 0.031 | -0.035 ± 0.0057 | -0.0755 ± 0.037 | -0.141 ± 0.015 | -0.163 ± 0.0042 | 0.0125 ± 0.0035
3C:CXCL9/MIG | 0.004 ± 0.024 | -0.0015 ± 0.0035 | 0.006 ± 0.0071 | 0.003 ± 0.0042 | 0.002 ± 0.0042 | 0.007 ± 0.013 | -0.003 ± 0.0014 | -0.0015 ± 0.0078 | 0.001 ± 0.0099 | -0.002 ± 0.0042 | 0.0015 ± 0.022 | -0.002 ± 0.016 | -0.0055 ± 0.0092 | 0.0015 ± 0.00071 | -0.0005 ± 0.00071 | -0.007 ± 0.014 | 0.003 ± 0.0057 | 0.0105 ± 0.0021 | 0.005 ± 0.0085 | -0.007 ± 0.027 | 0.013 ± 0.014 | 0.004 ± 0.0071 | -0.0105 ± 0.0064 | 0.0045 ± 0.016 | 0.01 ± 0.0028 | -0.01 ± 0.0057 | -0.0065 ± 0.00071 | -0.001 ± 0.014 | 0.0045 ± 0.0064 | 0.0145 ± 0.016 | -0.0005 ± 0.005
